Experimental data published in PubChem BioAssay AID493014 (National Center for Advancing Translational Sciences (NCATS), 2011).
The campaign covered roughly 340,000 compounds. About 170 (0.05%) were called active. Inconclusive means that the source gave no clear call. Such entries were picked first, then a sample of the others. Calls follow the shape of the dose curve; as a rule, active = well fitted inhibition curve with a large enough effect in the signal ratio, with a control signal flat (not every such curve was filed as active); inconclusive = small, poorly fitted or top-dose-only effect, or effect the other way, or a change in a side signal; inactive = flat fitted curve, though single readings scatter; the % refers to the signal ratio. A potency beside an inconclusive call is a rough fit, not a confirmed value.

Assay: qHTS Assay to Find Inhibitors of Chronic Active B-Cell Receptor Signaling;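 as to activity change, negative = inhibition: plate controls were basal doxycycline-induced cells for no effect and cells given 10 µM MG132 for full effect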
Conditions: ABC-DLBCL IkBa-CBG/CBR reporter, luminescence ratio (green luciferase fused to IkBa over red control in TMD8 lymphoma cells), 4 h; activity change, negative = inhibition: at 46.1 µM (top of the series) unless noted
Outline: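 Doxycycline induced both beetle luciferases in TMD8 lymphoma cells; IKK-driven degradation limits the IkappaBalpha-fused green signal, while red luminescence normalises for cell number and nonspecific effects. Compounds tested up to 46 uM, 4 hrs.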
Potency is read from the fitted curve at half-maximal effect.

| SMILES | Potency | activity change, negative = inhibition |
| --- | --- | --- |
| COc1cc(CNC(C)c2ccccc2)cc(Br)c1OCc1ccc(F)cc1 (stereo not given) | inconclusive: 12.6 µM [falling, single point] |  |
| CCN(CC)S(=O)(=O)c1ccc2c(c1)N(CC(=O)NCc1ccccn1)C(=O)CO2 |  | inconclusive: 1.65% |
| COc1cccc(/C=N/Nc2ccc(C(=O)O)cc2)c1O |  | inconclusive: 286% |
| COc1ccccc1CNC(=O)Cn1cc2c(n1)CCCC2 |  | inconclusive: 0.441% |
| O=C(C1CCCN(c2ncccn2)C1)N1CCc2ccccc21 (stereo not given) |  | inconclusive: 4.01% |
| COc1ccc(/C=C/C(=O)Nc2ccccc2C(N)=O)cc1S(=O)(=O)N1CCOCC1 | inconclusive: 23.1 µM [falling, partial curve] |  |
| Cc1[nH]n(-c2ccccc2)c(=O)c1C=Nc1ccc(S(N)(=O)=O)cc1 |  | inconclusive: 14.2% |
| O=C(O)c1cc(NCc2ccc(F)cc2)ccc1N1CCOCC1 |  | inconclusive: -0.611% |
| COc1cc(NC(=O)COc2ccc(F)cc2)nc(OC)n1 |  | inconclusive: -0.908% |
| Cc1nc(Nc2ccccc2)c2oc3ccc(Cl)cc3c2n1 | inconclusive: 28.2 µM [falling, partial curve, poor fit] |  |
| Cc1cc(NC(=O)COC(=O)c2ccccc2S(=O)(=O)N(C)c2ccccc2)no1 |  | inconclusive: 15.6% |
| CC1C/C=C/C=C/C=C/C=C/C(O[C@@H]2O[C@H](C)[C@@H](O)[C@H](N)[C@@H]2O)CC2OC(O)(CC(O)CC3OC3/C=C/C(=O)O1)CC(O)C2C(=O)O (stereo not given in full) | inconclusive: 25.9 µM [rising, partial curve, poor fit] |  |
| O=C(CSc1nc2ccccc2[nH]1)N1CCCCC1 |  | inconclusive: 1.09% |
| Cc1cc(C)c(C)c(S(=O)(=O)N2CCN(C(=O)C3CSC4(C)CCC(=O)N34)CC2)c1C (stereo not given) |  | inconclusive: -2.11% |
| O=C(NC1CC1)c1cc2c(s1)-c1ccccc1OC2 | inconclusive: 0.0146 µM [rising, full curve, poor fit] |  |
| Cc1ccc(-n2nc(C)c(NC(=O)COC(=O)c3ccccc3NCCO)c2C)cc1 | inconclusive: 16.4 µM [falling, single point] |  |
| CCN(CC)S(=O)(=O)c1cccc(C(=O)N[C@H](C(=O)Nc2nc3ccc(F)cc3s2)C(C)C)c1 | inconclusive: 29.1 µM [rising, partial curve, poor fit] |  |
| CCCc1nnc(NC(=O)CCC(=O)NC2CCCC2)s1 |  | inconclusive: 4.65% |
| CC(C)(C)NC(=O)C(=O)NNC(=O)c1ccccc1 |  | inconclusive: -3.54% |
| Cc1occc1C(=O)N1CCCC(N2CCN(c3cccc(C(F)(F)F)c3)CC2)C1 (stereo not given) |  | inactive: -5.75% |

Reprinted at random: 2 records from the list

| SMILES | Potency | activity change, negative = inhibition |
| --- | --- | --- |
| CCCc1nnc(NC(=O)CCC(=O)NC2CCCC2)s1 |  | inconclusive: 4.65% |
| O=C(CSc1nc2ccccc2[nH]1)N1CCCCC1 |  | inconclusive: 1.09% |
